Test results reported in US20110117021A1.
Substitutions are numbered along the chain they refer to. Results are given in words; binding and its absence hold for the method and conditions named. Some results given as binding are weak or reduced against the parent protein; the word gives no strength. Each block holds one binder with its values, some of them ahead of it.

By UniProt entry, the sequences of proteins in these tests, tags left out.
UniProt Q16853: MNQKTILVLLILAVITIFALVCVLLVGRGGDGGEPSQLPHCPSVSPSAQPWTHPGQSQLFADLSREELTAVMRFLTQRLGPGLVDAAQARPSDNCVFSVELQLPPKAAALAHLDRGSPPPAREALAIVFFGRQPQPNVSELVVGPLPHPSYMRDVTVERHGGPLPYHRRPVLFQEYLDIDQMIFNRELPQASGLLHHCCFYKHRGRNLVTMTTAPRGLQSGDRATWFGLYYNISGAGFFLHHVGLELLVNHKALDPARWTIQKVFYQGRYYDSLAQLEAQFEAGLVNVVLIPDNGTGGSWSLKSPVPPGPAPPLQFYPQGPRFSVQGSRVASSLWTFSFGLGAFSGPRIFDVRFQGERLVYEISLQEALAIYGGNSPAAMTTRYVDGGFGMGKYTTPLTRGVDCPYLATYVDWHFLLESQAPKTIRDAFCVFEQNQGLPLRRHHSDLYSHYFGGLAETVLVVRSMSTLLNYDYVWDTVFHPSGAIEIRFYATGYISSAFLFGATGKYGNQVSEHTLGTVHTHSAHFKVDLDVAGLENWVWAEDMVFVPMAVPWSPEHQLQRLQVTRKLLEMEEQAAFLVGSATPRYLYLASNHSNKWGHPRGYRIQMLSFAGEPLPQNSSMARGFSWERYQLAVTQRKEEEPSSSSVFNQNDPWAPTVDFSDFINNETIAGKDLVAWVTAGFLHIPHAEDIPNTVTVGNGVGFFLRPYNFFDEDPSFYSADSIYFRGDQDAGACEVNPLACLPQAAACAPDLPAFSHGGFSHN

Target: recombinant human Vascular Adhesion Protein-1 (rhVAP-1), purified from CHO cells (human) (UniProt Q16853)
Assay: time-resolved immunofluorometric assay, plate coated with rhVAP-1

- binding: binds
B1: fully human anti-VAP-1 monoclonal antibody 8C10 (hybridoma-derived) (antibody, human IgG1, V domains shown)
VH: QVQLVESGGGVVQPGRSLRLSCAASGFTFFSYAMHWVRQTPGKGLEWVAVIWFDGSNENYVDSVKGRFTISRDNSKNTLYLQMNTLRAEDTAVYYCARDAWSYFDYWGQGTLVTVSS
VL: VIQLTQSPSSLSASVGDRVTITCRASQGISRALAWYQQKPGKGPKLLIYDASSLESGVPSRFSGSGSGTDFTLTISSLQPEDFATYYCQQFNSYPLTFGGGTKVEIK

- binding: binds
B2: fully human anti-VAP-1 monoclonal antibody 3F10 (hybridoma-derived) (antibody, human IgG1, V domains shown)
VH: B1 VH with F30S, T40A, I51L, N59D, V61A, T85S, A100G, S102G
VL: B1 VL with V1A, G43A, S53N, S56R, Y94F
